Measured values taken from the supplement of paper PMC8256030.
Where “and” joins values, the source holds several entries; their conditions need not be identical. Identical values can stand only once. The list shows a part of the results. This data set is noisy: repeats of one test often differ as much as different tests do.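 HEK293T cells were given each compound shortly before transfection with a reporter in which red mCherry is followed by the SARS-CoV-2 frameshift element and then GFP in the −1 frame, so GFP appears only after frameshifting.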

Tested on: HEK293T
Test: percent viability (nuclei count) relative to control; higher = more viable cells
Conditions: 10 µM; 24 h

Compound	percent viability
Nc1nccs1 [aminothiazole]	329%
COc1ccc2cccc(CCNC(C)=O)c2c1 [agomelatine]	322%
Cc1nc2n(c(=O)c1CCN1CCC(c3noc4cc(F)ccc34)CC1)CCCC2O (centres undefined) [paliperidone]	245% and 193%
CCCNC(C)C(=O)Nc1ccccc1C (centres undefined) [prilocaine]	271%
Cc1c(C(=O)NCCO)[n+]([O-])c2ccccc2[n+]1[O-] [olaquindox]	38.8%
C=C1C[C@H]2[C@@H]3C=C(C)C4=CC(=O)CC[C@]4(C)[C@H]3CC[C@]2(C)[C@@]1(OC(C)=O)C(C)=O [Melengestrol Acetate]	173%
O=C(/C=C/c1c(C(=O)O)[nH]c2cc(Cl)cc(Cl)c12)Nc1ccccc1 [gavestinel]	93.1%
CC1(C)[C@@H](O)CC[C@]2(C)[C@H]3C(=O)C=C4[C@@H]5C[C@@](C)(C(=O)O)CC[C@]5(C)CC[C@@]4(C)[C@]3(C)CC[C@@H]12	17.3%
C(=N\NC1=NCCN1)/c1c2ccccc2c(/C=N/NC2=NCCN2)c2ccccc12 [bisantrene]	37%
CCCCNC(=O)c1ccc(Cl)cc1O [buclosamide]	272%
c1ccc(CC2=NCCN2)cc1 [tolazoline]	94.4%
Cc1c(C(N)=O)cc([N+](=O)[O-])cc1[N+](=O)[O-] [dinitolmide]	268%
COc1c(C)c2c(c(O)c1C/C=C(\C)CCC(=O)O)C(=O)OC2 [mycophenolic acid]	245% and 109%
NC(=O)CN1Cc2ccccc2OC1=O [caroxazone]	178%
O=C1C(=O)c2ccccc2C(O)=C1C1CCC(c2ccc(Cl)cc2)CC1 (centres undefined) [atovaquone]	216%
S=P(N1CC1)(N1CC1)N1CC1 [thiotepa]	380%
CCCN(CCC)CCc1cccc2c1CC(=O)N2 [ropinirole]	85.3%
Cc1ccccc1C(=O)Nc1ccc(C(=O)N2CCCC(O)c3cc(Cl)ccc32)c(C)c1 (centres undefined) [tolvaptan]	420%
OC[C@@H](O)[C@@H](O)[C@H](O)[C@H](O)CO	145%
CCN1CCCC(OC(=O)C(c2ccccc2)c2ccccc2)C1 (centres undefined) [piperidolate]	251%

Compound	percent viability
OB1OCc2cc(F)ccc21 [Tavaborole]	303%
O=C(CCCN1CCC(O)(c2ccc(Cl)cc2)CC1)c1ccc(F)cc1 [haloperidol]	161% and 208%
CC(C)(C)CC(=O)OCC(=O)[C@@]12OC(C)(C)O[C@@H]1C[C@H]1[C@@H]3CCC4=CC(=O)C=C[C@]4(C)[C@@]3(F)[C@@H](O)C[C@@]12C [triamcinolone hexacetonide]	151%
COc1ccc(-c2cc(=O)c3c(O)cc(O[C@@H]4O[C@H](CO[C@@H]5O[C@@H](C)[C@H](O)[C@@H](O)[C@H]5O)[C@@H](O)[C@H](O)[C@H]4O)cc3o2)cc1O [diosmin]	188% and 271%
Cc1onc(-c2c(F)cccc2Cl)c1C(=O)N[C@@H]1C(=O)N2[C@@H]1SC(C)(C)[C@@H]2C(=O)O [Floxacillin]	42.8%
CC[C@H]1OC(=O)C[C@@H](O)[C@H](C)[C@@H](O[C@@H]2O[C@H](C)C[C@H](N(C)C)[C@H]2O)[C@@H](CC=O)C[C@@H](C)C(=O)/C=C/[C@]2(C)O[C@H]2[C@@H]1C [rosaramicin]	175%
CC[C@@]1(O)C(=O)OCc2c1cc1n(c2=O)Cc2cc3c([N+](=O)[O-])cccc3nc2-1 [rubitecan]	18.5%
CCNC(=O)CCC/C=C\C[C@@H]1[C@@H](/C=C/[C@@H](O)CCc2ccccc2)[C@H](O)C[C@@H]1O [bimatoprost]	301%
Nc1ccn([C@@H]2O[C@H](CO)[C@@H](O)C2(F)F)c(=O)n1 [gemcitabine]	210%
Cc1cccc(N(C)C(=S)Oc2ccc3ccccc3c2)c1 [tolnaftate]	266%
CCCC(=O)OCOC(=O)C1=C(C)NC(C)=C(C(=O)OC)C1c1cccc(Cl)c1Cl (centres undefined) [clevidipine]	205%
Cc1cccc(/C=N/N2CCN(C(c3ccccc3)c3ccccc3)CC2)n1 [ropizine]	76.9%
Cc1cccc(Nc2ccccc2C(=O)O)c1C [mefenamic acid]	290% and 218%
CCOC(=O)COc1ccc2c(=O)cc(-c3ccccc3)oc2c1 [efloxate]	229%
CC(C)OC(=O)CCC/C=C\C[C@@H]1[C@@H](CC[C@@H](O)CCc2ccccc2)[C@H](O)C[C@@H]1O [latanoprost]	88.8%
Cc1cc2nc3c(=O)[nH]c(=O)nc-3n(C[C@H](O)[C@H](O)[C@H](O)COP(=O)(O)O)c2cc1C	142%
CN(C)c1cc(NC(=O)CNC(C)(C)C)c(O)c2c1C[C@H]1C[C@H]3[C@H](N(C)C)C(=O)C(C(N)=O)=C(O)[C@@]3(O)C(=O)C1=C2O [Tigecycline]	284%
CC(=O)NS(=O)(=O)c1ccc(NC(=O)c2ccccc2C(=O)O)cc1	213%
CN[C@H](C(=O)N[C@H](C(=O)N(C)[C@H](/C=C(\C)C(=O)O)C(C)C)C(C)(C)C)C(C)(C)c1ccccc1 [taltobulin]	14.2%
